Test results taken from paper PMC4742980.
Results are given in words; binding and its absence hold for the method and conditions named. In cells and extracts the contact can be indirect. Some binding calls cover weakened binding; strength is not graded here.

By UniProt entry, the sequences of proteins in these tests, tags left out. Where a name states a change or a piece, a line headed by the entry shows the natural chain unless it says otherwise.
UniProt P11387: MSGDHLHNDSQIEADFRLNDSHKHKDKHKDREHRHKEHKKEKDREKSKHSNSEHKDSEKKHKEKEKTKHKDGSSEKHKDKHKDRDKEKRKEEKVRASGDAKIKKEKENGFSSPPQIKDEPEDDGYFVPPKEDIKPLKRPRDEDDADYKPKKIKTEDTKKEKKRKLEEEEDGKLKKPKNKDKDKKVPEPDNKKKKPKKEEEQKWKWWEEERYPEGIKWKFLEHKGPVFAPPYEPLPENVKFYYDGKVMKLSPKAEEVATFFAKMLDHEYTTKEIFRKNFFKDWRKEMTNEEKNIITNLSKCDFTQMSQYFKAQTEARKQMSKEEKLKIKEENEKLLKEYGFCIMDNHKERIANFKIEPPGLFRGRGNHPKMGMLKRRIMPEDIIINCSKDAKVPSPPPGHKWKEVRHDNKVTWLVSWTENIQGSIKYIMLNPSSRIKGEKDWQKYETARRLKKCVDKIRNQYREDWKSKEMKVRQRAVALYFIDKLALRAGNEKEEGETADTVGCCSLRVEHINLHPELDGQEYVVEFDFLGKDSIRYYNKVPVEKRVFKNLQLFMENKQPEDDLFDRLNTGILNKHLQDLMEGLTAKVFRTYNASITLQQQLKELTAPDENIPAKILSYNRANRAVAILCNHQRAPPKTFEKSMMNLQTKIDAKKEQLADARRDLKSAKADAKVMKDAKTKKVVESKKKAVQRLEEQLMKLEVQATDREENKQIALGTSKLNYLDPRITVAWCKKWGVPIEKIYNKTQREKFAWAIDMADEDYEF
UniProt Q08943: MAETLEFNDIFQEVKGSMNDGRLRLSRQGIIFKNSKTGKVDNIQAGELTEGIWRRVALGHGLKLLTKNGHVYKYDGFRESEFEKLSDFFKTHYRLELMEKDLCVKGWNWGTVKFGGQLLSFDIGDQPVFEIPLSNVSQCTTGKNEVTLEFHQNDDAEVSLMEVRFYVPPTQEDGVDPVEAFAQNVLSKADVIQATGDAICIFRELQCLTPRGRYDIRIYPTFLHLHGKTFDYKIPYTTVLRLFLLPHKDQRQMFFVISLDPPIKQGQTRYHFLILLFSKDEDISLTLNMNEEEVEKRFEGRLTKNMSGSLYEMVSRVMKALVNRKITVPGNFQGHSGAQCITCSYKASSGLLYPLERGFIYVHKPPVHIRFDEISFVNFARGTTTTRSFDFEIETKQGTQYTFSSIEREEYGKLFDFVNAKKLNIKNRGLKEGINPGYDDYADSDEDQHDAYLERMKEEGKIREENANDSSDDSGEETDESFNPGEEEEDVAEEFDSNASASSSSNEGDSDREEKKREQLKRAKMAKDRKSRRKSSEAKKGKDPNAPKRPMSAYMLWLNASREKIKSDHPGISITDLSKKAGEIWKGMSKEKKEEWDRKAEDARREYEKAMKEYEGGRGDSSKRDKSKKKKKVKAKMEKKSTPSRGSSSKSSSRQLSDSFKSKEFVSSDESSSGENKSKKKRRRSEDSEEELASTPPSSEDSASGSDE
UniProt Q3TKT4: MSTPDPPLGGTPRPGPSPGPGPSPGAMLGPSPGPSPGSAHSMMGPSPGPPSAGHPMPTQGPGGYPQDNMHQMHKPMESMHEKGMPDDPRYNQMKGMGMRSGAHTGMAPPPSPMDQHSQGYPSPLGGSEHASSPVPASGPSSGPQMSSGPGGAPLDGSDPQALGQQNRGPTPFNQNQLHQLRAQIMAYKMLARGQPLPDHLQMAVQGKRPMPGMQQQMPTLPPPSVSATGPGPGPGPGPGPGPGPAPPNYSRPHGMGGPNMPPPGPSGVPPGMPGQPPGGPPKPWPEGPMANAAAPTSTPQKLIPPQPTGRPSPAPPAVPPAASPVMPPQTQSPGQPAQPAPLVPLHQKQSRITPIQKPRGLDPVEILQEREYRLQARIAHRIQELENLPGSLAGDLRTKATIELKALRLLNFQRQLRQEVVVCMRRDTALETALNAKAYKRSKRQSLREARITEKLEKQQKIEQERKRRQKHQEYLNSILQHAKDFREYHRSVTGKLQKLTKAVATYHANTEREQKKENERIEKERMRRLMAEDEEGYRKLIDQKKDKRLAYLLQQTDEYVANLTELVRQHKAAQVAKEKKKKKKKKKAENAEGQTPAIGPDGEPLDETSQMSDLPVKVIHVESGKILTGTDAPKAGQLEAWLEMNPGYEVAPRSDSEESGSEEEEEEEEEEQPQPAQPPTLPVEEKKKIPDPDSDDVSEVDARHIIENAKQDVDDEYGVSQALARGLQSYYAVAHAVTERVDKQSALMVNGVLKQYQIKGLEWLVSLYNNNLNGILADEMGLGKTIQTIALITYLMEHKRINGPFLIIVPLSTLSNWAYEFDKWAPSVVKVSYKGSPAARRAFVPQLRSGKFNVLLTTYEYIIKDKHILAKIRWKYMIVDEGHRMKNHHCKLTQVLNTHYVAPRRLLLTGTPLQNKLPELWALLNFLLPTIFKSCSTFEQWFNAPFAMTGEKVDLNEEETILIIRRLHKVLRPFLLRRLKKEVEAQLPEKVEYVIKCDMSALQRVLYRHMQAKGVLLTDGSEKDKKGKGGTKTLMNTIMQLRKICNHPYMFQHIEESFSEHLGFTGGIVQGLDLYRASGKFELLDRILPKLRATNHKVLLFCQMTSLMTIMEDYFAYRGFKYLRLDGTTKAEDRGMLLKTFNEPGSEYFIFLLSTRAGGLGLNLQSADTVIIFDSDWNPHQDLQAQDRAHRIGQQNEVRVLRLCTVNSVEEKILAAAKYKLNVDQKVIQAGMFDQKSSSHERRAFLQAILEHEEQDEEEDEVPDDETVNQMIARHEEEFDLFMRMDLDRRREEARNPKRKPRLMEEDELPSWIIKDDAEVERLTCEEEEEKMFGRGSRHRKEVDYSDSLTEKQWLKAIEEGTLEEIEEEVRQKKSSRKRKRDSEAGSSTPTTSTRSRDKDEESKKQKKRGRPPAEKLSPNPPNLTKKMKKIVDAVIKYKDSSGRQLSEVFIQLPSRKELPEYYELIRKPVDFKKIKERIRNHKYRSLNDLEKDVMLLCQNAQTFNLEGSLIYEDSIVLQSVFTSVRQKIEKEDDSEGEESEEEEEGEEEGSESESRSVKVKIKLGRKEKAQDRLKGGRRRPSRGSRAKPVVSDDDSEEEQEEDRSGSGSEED

Target: GFP-tagged human TOP1 (GFP-TOP1) (human) (UniProt P11387)
Experiment: co-IP; native-IP of GFP-TOP1 or GFP with GFP-Trap_A from nuclei of P388/CPT45 transfectants, western blot; also after control, SSRP1 or SMARCA4 siRNA

| Substance | binding |
| --- | --- |
| FACT (heterodimeric complex composed of SSRP1 and SPT16/SUPT16H), endogenous, mouse (from UniProt Q08943 1-708; Q920B9 1-1047) | binds |
| SMARCA4 (endogenous, mouse) (from UniProt Q3TKT4 1-1613) | binds |
